Laboratory results taken from the supplement of paper PMC10849652.
The other results are listed elsewhere or left out.

Sequences of proteins named here, by UniProt entry; tags and fusion partners are left off. A change or cut given only in a name is not applied to a line headed by its entry.
UniProt Q9BV10: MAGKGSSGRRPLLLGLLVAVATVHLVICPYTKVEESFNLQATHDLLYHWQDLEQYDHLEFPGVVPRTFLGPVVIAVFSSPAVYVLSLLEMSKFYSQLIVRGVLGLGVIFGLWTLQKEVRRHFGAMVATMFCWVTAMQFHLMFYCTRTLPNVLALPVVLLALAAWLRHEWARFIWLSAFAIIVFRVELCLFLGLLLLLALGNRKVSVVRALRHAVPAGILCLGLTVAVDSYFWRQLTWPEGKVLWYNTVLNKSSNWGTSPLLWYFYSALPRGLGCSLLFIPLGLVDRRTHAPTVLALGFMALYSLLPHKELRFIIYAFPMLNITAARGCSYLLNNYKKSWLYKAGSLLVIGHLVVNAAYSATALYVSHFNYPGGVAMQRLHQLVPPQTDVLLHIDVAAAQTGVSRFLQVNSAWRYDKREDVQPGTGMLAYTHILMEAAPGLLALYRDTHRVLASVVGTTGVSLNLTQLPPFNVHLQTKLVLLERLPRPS
UniProt P35612: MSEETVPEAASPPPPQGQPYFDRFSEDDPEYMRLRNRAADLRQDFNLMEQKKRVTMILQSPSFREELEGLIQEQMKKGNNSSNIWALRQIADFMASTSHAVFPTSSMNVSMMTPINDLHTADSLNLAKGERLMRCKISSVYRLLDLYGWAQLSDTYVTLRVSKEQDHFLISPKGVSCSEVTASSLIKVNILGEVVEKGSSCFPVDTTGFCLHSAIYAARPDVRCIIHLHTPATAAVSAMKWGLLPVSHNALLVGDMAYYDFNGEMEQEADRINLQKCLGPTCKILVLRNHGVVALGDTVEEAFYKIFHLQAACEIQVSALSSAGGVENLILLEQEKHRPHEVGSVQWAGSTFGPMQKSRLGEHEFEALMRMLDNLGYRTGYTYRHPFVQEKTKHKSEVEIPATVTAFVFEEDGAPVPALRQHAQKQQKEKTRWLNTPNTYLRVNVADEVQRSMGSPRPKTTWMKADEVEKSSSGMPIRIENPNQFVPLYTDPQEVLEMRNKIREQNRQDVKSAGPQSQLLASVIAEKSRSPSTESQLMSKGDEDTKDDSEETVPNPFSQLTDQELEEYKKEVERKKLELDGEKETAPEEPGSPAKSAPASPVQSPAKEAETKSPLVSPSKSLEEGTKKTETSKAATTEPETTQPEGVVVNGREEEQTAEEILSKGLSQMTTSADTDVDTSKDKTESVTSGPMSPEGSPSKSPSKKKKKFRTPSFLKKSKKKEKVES
UniProt P35611: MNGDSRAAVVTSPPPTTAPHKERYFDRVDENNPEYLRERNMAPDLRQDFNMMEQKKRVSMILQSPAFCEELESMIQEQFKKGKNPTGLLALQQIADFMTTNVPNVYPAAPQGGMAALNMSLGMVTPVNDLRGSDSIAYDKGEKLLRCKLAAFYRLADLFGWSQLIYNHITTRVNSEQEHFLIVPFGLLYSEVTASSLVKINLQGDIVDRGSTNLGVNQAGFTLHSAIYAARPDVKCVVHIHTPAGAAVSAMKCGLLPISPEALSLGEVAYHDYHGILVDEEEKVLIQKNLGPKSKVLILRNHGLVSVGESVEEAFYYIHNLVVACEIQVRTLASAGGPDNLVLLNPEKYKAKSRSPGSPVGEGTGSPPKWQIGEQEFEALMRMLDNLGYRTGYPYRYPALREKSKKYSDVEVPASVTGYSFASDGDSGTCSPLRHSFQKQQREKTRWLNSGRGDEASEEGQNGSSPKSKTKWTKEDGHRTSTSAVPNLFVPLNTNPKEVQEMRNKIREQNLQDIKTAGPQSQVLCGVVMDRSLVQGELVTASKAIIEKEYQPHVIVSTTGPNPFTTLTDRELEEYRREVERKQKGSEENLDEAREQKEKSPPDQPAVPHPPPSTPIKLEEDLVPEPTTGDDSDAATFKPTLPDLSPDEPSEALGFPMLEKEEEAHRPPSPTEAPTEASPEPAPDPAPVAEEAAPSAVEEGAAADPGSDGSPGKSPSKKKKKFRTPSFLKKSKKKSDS
UniProt P05091: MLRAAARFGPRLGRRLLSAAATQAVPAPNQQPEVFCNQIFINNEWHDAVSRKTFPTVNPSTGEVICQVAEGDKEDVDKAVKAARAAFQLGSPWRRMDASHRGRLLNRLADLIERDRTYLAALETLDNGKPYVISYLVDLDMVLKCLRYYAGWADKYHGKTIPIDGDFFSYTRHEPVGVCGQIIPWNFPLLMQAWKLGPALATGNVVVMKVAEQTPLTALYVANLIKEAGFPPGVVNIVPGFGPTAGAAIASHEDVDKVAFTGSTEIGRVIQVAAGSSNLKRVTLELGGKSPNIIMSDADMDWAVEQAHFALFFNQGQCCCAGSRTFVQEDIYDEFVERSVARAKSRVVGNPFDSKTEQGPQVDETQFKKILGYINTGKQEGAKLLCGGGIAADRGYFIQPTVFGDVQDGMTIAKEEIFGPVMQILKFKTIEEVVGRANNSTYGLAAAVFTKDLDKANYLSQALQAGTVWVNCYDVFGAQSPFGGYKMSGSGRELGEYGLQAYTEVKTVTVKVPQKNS
UniProt Q96P47: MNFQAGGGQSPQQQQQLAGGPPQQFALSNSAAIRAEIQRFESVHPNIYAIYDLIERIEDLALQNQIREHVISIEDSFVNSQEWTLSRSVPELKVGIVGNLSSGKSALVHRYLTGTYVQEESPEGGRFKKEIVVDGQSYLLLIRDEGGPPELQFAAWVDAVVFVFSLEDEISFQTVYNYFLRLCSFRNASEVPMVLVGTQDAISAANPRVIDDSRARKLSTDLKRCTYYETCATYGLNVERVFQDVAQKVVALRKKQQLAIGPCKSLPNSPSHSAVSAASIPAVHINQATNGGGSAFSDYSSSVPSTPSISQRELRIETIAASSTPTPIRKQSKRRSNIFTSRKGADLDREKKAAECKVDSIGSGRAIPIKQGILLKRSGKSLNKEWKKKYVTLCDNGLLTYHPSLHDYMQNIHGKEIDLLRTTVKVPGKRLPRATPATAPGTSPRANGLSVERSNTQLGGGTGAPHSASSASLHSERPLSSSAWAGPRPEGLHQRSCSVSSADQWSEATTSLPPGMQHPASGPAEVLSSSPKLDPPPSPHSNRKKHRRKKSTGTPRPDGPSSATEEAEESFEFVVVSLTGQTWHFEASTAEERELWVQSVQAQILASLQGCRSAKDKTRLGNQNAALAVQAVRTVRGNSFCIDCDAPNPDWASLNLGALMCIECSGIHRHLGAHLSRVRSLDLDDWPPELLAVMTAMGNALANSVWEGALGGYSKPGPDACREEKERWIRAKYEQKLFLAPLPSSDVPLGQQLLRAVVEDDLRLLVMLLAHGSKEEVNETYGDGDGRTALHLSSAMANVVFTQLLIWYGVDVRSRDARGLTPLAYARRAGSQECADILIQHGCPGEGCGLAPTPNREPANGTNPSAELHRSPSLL
UniProt P55196: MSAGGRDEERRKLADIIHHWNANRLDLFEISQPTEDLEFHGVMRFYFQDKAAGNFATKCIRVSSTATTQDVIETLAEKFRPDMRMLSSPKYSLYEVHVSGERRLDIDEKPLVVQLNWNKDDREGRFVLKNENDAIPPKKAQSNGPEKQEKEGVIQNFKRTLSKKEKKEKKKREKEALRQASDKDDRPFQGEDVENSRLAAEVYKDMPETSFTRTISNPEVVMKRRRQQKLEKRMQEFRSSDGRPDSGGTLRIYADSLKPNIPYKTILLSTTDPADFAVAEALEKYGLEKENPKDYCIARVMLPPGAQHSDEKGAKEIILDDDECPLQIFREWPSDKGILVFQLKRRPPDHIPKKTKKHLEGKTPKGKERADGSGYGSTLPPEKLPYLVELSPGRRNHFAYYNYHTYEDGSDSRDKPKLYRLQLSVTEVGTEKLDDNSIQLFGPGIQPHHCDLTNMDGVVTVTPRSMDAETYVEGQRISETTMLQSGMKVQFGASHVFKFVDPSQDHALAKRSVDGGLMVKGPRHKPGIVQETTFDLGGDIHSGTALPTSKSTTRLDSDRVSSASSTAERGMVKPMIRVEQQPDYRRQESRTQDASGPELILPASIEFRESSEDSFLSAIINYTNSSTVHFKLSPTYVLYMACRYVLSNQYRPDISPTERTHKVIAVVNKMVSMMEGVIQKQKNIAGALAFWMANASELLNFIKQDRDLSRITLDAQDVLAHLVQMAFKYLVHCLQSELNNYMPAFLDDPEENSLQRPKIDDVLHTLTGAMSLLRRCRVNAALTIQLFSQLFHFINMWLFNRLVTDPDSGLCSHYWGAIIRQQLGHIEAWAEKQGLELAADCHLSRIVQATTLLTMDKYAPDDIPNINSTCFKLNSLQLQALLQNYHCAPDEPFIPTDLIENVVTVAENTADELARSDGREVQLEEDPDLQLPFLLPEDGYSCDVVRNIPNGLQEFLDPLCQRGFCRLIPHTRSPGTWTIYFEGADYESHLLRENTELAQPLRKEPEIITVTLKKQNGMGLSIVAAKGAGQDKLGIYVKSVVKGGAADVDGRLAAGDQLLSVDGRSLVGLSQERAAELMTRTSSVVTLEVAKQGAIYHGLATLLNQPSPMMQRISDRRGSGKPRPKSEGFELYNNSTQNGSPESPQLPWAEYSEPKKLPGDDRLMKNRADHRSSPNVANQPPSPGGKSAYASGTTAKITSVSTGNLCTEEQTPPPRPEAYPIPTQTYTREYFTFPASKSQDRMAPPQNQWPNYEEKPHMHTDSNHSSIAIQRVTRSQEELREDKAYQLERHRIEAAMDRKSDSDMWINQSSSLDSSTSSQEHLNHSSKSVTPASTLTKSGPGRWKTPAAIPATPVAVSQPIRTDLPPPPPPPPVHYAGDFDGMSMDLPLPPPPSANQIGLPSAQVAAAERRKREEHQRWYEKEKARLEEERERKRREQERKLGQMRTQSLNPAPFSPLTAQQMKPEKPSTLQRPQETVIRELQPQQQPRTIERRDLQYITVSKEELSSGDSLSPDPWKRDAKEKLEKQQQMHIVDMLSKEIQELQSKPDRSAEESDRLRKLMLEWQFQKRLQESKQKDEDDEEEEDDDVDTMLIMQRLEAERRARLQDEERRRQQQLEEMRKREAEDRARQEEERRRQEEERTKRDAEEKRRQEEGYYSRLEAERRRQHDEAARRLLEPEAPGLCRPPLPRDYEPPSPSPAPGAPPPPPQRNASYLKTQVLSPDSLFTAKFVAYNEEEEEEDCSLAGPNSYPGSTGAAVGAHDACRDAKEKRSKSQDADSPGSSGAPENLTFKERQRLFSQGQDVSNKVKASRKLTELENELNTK
UniProt P05062: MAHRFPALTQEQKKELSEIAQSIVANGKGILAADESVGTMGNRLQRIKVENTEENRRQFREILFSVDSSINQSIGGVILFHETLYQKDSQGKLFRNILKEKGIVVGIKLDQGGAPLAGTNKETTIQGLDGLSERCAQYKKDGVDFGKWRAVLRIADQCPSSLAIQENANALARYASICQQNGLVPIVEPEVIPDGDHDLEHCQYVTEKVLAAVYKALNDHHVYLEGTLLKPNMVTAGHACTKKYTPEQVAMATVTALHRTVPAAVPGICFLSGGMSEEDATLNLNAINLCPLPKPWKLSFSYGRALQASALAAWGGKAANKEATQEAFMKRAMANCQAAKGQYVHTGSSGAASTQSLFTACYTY
UniProt Q04828: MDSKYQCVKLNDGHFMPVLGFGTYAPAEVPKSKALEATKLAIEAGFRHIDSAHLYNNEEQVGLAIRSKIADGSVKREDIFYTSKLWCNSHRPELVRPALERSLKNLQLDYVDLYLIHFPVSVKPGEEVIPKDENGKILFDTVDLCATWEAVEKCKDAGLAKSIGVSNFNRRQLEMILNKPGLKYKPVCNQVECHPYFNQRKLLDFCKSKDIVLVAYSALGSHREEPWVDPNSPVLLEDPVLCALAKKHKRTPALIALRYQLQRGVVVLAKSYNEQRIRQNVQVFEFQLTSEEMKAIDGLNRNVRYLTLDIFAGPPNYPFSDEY
UniProt Q6ZN18: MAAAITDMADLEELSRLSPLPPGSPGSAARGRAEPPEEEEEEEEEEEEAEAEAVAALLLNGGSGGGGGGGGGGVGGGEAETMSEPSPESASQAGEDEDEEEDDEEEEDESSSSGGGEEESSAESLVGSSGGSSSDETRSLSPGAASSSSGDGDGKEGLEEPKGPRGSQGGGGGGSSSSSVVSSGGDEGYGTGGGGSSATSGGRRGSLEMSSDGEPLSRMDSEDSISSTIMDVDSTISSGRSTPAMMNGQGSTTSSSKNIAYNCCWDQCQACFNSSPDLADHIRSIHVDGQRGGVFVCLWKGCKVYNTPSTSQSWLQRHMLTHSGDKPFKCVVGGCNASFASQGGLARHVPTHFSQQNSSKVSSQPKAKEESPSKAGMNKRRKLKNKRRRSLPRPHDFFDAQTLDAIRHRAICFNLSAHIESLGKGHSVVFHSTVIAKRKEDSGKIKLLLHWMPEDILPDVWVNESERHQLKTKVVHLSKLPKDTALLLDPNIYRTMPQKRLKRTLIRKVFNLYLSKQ

Columns and labels:
Assay in all cases: log2 fold change, soluble protein after heating vs DMSO (PISA); higher = thermal stabilisation; K562 cells, 10 uM, 30 min; active = over 0.2 and 3.5 SD of the protein, either way, in both replicates (recomputed)
[1] = compound: Cc1ccc(NC(=O)c2ccc(CN3CC[C@H](N(C)C)C3)c(C(F)(F)F)c2)cc1Nc1nccc(-c2cncnc2)n1 [bafetinib]
In short: (§1)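 Values are thermal stability changes relative to control samples and are taken from duplicates. They are stated as log2 fold changes. Before quantification by TMTpro 16plex LC-MS/MS with equalised channel sums, K562 cells at 2×10^6 cells/mL were treated with 10 μM compound for 30 min, heated in aliquots for 3 min across 48°C-58°C, pooled, extracted in PBS with 0.5% NP-40 at 4°C, and centrifuged at 21,000xg for 90 min to give the soluble supernatant.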

[2] = compound: Cc1cccc(CC(=O)N2CCc3c2ccc(-c2cn(C)c4ncnc(N)c24)c3F)n1
In short: as §1

[3] = compound: Cc1cn(-c2cc(NC(=O)c3ccc(C)c(Nc4nccc(-c5cccnc5)n4)c3)cc(C(F)(F)F)c2)cn1 [nilotinib]
In short: as §1

[4] = compound: Cc1nc(Nc2n[nH]c3c2CN(C(=O)N[C@H](CN(C)C)c2ccccc2)C3(C)C)c2sccc2n1
In short: as §1

[5] = compound: Cc1ncc(-c2ccnc(Nc3ccc(S(C)(=O)=O)cc3)n2)n1C(C)C
In short: as §1

[6] = compound: O=C(CCCCCCC(=O)Nc1ccccc1)NO [vorinostat]
In short: as §1

[7] = compound: O=C(CCCCCCNC(=O)c1cnc(N(c2ccccc2)c2ccccc2Cl)nc1)NO [citarinostat]
In short: as §1

[8] = compound: c1cc(OCCN2CCCCC2)cc(-c2n[nH]c3ccc(-c4nnc[nH]4)cc23)c1
In short: as §1

[9] = compound: Cc1nc(Nc2ncc(C(=O)Nc3c(C)cccc3Cl)s2)cc(N2CCN(CCO)CC2)n1 [dasatinib]
In short: as §1

[10] = compound: Cn1cc(-c2ccc3c(c2)CCN3C(=O)Cc2cccc(C(F)(F)F)c2)c2c(N)ncnc21
In short: as §1

[11] = compound: Cn1cncc1[C@@](N)(c1ccc(Cl)cc1)c1ccc2c(c1)c(-c1cccc(Cl)c1)cc(=O)n2C [tipifarnib]
In short: as §1

[12] = compound: FC(F)(F)c1ccc(/C=C/c2nc(COc3ccc(CCCCn4ccnn4)cc3)co2)cc1 [mubritinib]
In short: as §1

[13] = compound: NC(=O)Nc1cc(-c2cccc(F)c2)sc1C(=O)N[C@H]1CCCNC1
In short: as §1

[14] = compound: NC(=O)c1cnc(N[C@@H]2CCCC[C@@H]2N)nc1Nc1cccc(-n2nccn2)c1
In short: as §1

[15] = compound: NC1(c2ccc(-c3nc4ccn5c(=O)[nH]nc5c4cc3-c3ccccc3)cc2)CCC1
In short: as §1

[16] = compound: NCC(=O)Nc1ccc(-n2nc(C(F)(F)F)cc2-c2ccc3c(ccc4ccccc43)c2)cc1
In short: as §1

[17] = compound: Nc1ccccc1NC(=O)c1ccc(CNC(=O)OCc2cccnc2)cc1 [entinostat]
In short: as §1

[18] = compound: O=C(O)c1ccc2c(c1)nc(Nc1cccc(Cl)c1)c1ccncc12 [silmitasertib]
In short: as §1

[19] = compound: O=C1NC(=O)C(c2cnc3ccccn23)=C1c1cn2c3c(cc(F)cc13)CN(C(=O)N1CCCCC1)CC2
In short: as §1

[20] = compound: Cn1cc(-c2ccc3nnc(C(F)(F)c4ccc5ncccc5c4)n3n2)cn1
In short: as §1

Measured: log2 fold change

ALMS1 (UniProt Q8TCU4)
inactive: [1] -0.132 | [2] 0.032 | [3] -0.095 | [4] 0.131 | [5] -0.016 | [6] 0.111 | [7] -0.033 | [8] -0.428

ALG12 (UniProt Q9BV10)
inactive: [1] 0.009 | [9] 0.027 | [10] 0.076 | [11] -0.051 | [12] -0.011 | [13] 0.026 | [14] -0.12 | [15] -0.088 | [16] 0.08 | [17] 0.072 | [7] -0.029 | [18] -0.008 | [19] -0.01 | [8] -0.082

AFF1 isoform 2 (UniProt P51825)
inactive: [1] 0.344 | [2] -0.022 | [3] -0.181 | [4] 0.024 | [9] 0.115 | [5] -0.05 | [11] 0.093 | [12] -0.091 | [14] -0.079 | [15] 0 | [16] -0.119 | [6] 0.164 | [7] -0.053 | [18] -0.007 | [19] 0.1 | [8] -0.33

ADD2 isoform 9 (UniProt P35612)
inactive: [1] 0.021 | [20] -0.002 | [11] 0.149 | [12] -0.125 | [13] 0 | [17] -0.052 | [18] -0.225
active: [15] -1.2

AMBRA1 isoform 5 (UniProt Q9C0C7)
inactive: [1] 0.009 | [9] -0.051 | [10] 0.026 | [12] 0.16 | [14] -0.055 | [15] -0.169 | [16] -0.194 | [18] -0.036 | [19] -0.188

ADGRE2 (UniProt Q9UHX3)
inactive: [1] 0.047 | [2] -0.096 | [3] 0.029 | [4] 0.068 | [5] 0.126 | [20] 0.06 | [11] 0.099 | [12] 0.095 | [13] -0.02 | [14] 0.034 | [15] -0.089 | [16] 0.011 | [17] -0.035 | [6] -0.032 | [7] -0.112 | [18] 0.081 | [19] -0.037 | [8] -0.132

AGA (UniProt P20933)
inactive: [1] -0.114 | [2] -0.112 | [10] -0.009 | [11] 0.248 | [12] -0.03 | [15] -0.076 | [6] -0.027 | [7] -0.003 | [18] 0.101 | [8] -0.016

ADD1 isoform 4 (UniProt P35611)
inactive: [1] -0.034 | [2] 0.033 | [10] 0.114 | [6] 0.05 | [19] 0.027

ALDH2 isoform 2 (UniProt P05091)
inactive: [1] -0.029 | [2] -0.124 | [20] 0.244 | [11] 0.015 | [13] -0.345 | [14] -0.389 | [16] -0.351 | [17] -0.14 | [6] 0.083 | [7] -0.055 | [19] 0.051 | [8] -0.36

ADGRV1 (UniProt Q8WXG9)
inactive: [1] 0.055 | [2] -0.066 | [3] -0.125 | [4] 0.024 | [5] -0.021 | [10] -0.021 | [12] 0.035 | [13] -0.153 | [15] 0.029 | [17] -0.1 | [6] 0.248 | [7] -0.114 | [18] 0.071 | [19] 0.04 | [8] -0.024

Random excerpt: 2 records from the list, in no set order.
ADGRE2 (UniProt Q9UHX3)
inactive: [1] 0.047 | [2] -0.096 | [3] 0.029 | [4] 0.068 | [5] 0.126 | [20] 0.06 | [11] 0.099 | [12] 0.095 | [13] -0.02 | [14] 0.034 | [15] -0.089 | [16] 0.011 | [17] -0.035 | [6] -0.032 | [7] -0.112 | [18] 0.081 | [19] -0.037 | [8] -0.132

ADD1 isoform 4 (UniProt P35611)
inactive: [1] -0.034 | [2] 0.033 | [10] 0.114 | [6] 0.05 | [19] 0.027

More records:

AGAP3 isoform 4 (UniProt Q96P47)
inactive: [1] -0.144 | [3] 0.138 | [4] -0.016 | [5] -0.049 | [10] -0.077 | [20] -0.082 | [11] -0.012 | [12] -0.156 | [13] 0.034 | [14] -0.128 | [15] -0.001 | [17] 0.021 | [7] -0.063 | [18] -0.019 | [19] 0.127 | [8] -0.18

ALG13 isoform 2 (UniProt Q9NP73)
inactive: [1] -0.021 | [2] 0.07 | [3] 0.076 | [4] 0.056 | [9] 0.007 | [5] -0.035 | [11] -0.016 | [12] -0.102 | [14] 0.077 | [15] -0.167 | [16] -0.035 | [6] 0.02 | [18] -0.024 | [19] -0.052

AFDN isoform 1 (UniProt P55196)
inactive: [1] -0.053 | [2] -0.077 | [9] -0.152 | [10] -0.027 | [20] 0.07 | [12] 0.031 | [13] -0.016 | [14] 0.048 | [15] -0.043 | [16] -0.031 | [17] 0.047 | [6] -0.033 | [7] 0.079 | [18] 0.002 | [19] -0.054 | [8] -0.141

ALDOB (UniProt P05062)
inactive: [13] 0.011 | [17] 0.335 | [19] -0.073

AMDHD2 (UniProt Q9Y303)
inactive: [2] 0.018 | [9] -0.136 | [10] -0.025 | [11] -0.015 | [13] 0.046 | [16] 0.131 | [17] -0.033 | [6] 0.046 | [7] -0.164 | [8] 0.344

ADH1A (UniProt P07327)
inactive: [13] 0.109 | [17] 0.011

AKR1C1 (UniProt Q04828)
inactive: [12] 0.158 | [15] -0.009 | [18] 0.25

AGGF1 (UniProt Q8N302)
inactive: [1] -0.166 | [12] 0.246 | [15] 0.018 | [18] 0.172

ALOX5 (UniProt P09917)
inactive: [9] 0.186

AEBP2 (UniProt Q6ZN18)
inactive: [1] -0.084 | [7] -0.182 | [19] 0.038 | [8] 0.078
